# Results from one PubChem assay

The results are deposited in PubChem (AID504749; NCATS, 2011).

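Malaria parasite (P. falciparum) lines kept in red blood cells; parasite DNA is measured by SYBR Green fluorescence after lysis, 72 h after compound addition.
Each compound was titrated across a series from about 0.000037 to 29 µM.
The number is the fitted AC50, the concentration giving a half-maximal change in signal; a lower value means higher potency, whether the curve shows a decrease or an increase.
Calls follow the curve class and fit quality: every row here is inconclusive, covering signal-raising curves and weak, poorly fitted, partial or highest-dose-only inhibition curves.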

Values are in µM.
Every entry below has the call inconclusive.
These entries are mostly ones the record files as inconclusive; other results of the assay are not listed here.
A potency from a partial, single-point or poor curve is only a rough figure.
Some entries filed as inconclusive have a full curve.

COc1ccc2c(c1OC)CN1CCc3cc4c(cc3[C@H]1C2)OCO4 [CP201] read fitted potency 2.279 µM (inhibitor, partial curve). COc1ccc2c(c1OC)CN1CCc3cc4c(cc3[C@H]1C2)OCO4 [CP217] gave fitted potency 3.162 µM (inhibitor, partial curve). Result for COc1ccc2c(c1OC)CN1CCc3cc4c(cc3[C@H]1C2)OCO4 [CP266] was fitted potency 2.558 µM (inhibitor, partial curve). COc1ccc2c(c1OC)CN1CCc3cc4c(cc3[C@H]1C2)OCO4 [ATS189] read fitted potency 2.239 µM (inhibitor, partial curve). With COc1ccc2c(c1OC)CN1CCc3cc4c(cc3[C@H]1C2)OCO4 [CP268] the assay gave fitted potency 2.558 µM (inhibitor, partial curve). COc1ccc2c(c1OC)CN1CCc3cc4c(cc3[C@H]1C2)OCO4 [AS120] gave fitted potency 3.548 µM (inhibitor, single point).

With COc1ccc2c(c1OC)CN1CCc3cc4c(cc3[C@H]1C2)OCO4 [CP325] the assay gave fitted potency 0.5103 µM (inhibitor, full curve). With COc1ccc2c(c1OC)CN1CCc3cc4c(cc3[C@H]1C2)OCO4 [HB3] the assay gave fitted potency 2.818 µM (inhibitor, partial curve). For COc1ccc2c(c1OC)CN1CCc3cc4c(cc3[C@H]1C2)OCO4 [3D7] the result was fitted potency 1 µM (inhibitor, full curve, poor fit). With COc1ccc2c(c1OC)CN1CCc3cc4c(cc3[C@H]1C2)OCO4 [CP265] the assay gave fitted potency 7.08 µM (inhibitor, single point). COc1ccc2c(c1OC)CN1CCc3cc4c(cc3[C@H]1C2)OCO4 [CP203] read fitted potency 2.558 µM (inhibitor, partial curve, poor fit). COc1ccc2c(c1OC)CN1CCc3cc4c(cc3[C@H]1C2)OCO4 [PC26] read fitted potency 2.279 µM (inhibitor, partial curve, poor fit).

COc1ccc2c(c1OC)CN1CCc3cc4c(cc3[C@H]1C2)OCO4 [CP260] gave fitted potency 10 µM (inhibitor, single point). COc1ccc2c(c1OC)CN1CCc3cc4c(cc3[C@H]1C2)OCO4 [CP286] read fitted potency 1.995 µM (inhibitor, partial curve). For COc1ccc2c(c1OC)CN1CCc3cc4c(cc3[C@H]1C2)OCO4 [CP335] the result was fitted potency 3.22 µM (inhibitor, partial curve). O=c1[nH]c2ccccc2n1CCCN1CCN(C(c2ccccc2)c2ccccc2)CC1 [CP297] read fitted potency 19.01 µM (inhibitor, single point). For O=c1[nH]c2ccccc2n1CCCN1CCN(C(c2ccccc2)c2ccccc2)CC1 [CP260] the result was fitted potency 12.59 µM (inhibitor, single point). O=c1[nH]c2ccccc2n1CCCN1CCN(C(c2ccccc2)c2ccccc2)CC1 [SC27B] gave fitted potency 11.22 µM (inhibitor, single point).

O=c1[nH]c2ccccc2n1CCCN1CCN(C(c2ccccc2)c2ccccc2)CC1 [PC15] read fitted potency 17.78 µM (inhibitor, single point). Result for O=c1[nH]c2ccccc2n1CCCN1CCN(C(c2ccccc2)c2ccccc2)CC1 [CP269] was fitted potency 12 µM (inhibitor, single point). With O=c1[nH]c2ccccc2n1CCCN1CCN(C(c2ccccc2)c2ccccc2)CC1 [PC26] the assay gave fitted potency 16.94 µM (inhibitor, single point). With O=c1[nH]c2ccccc2n1CCCN1CCN(C(c2ccccc2)c2ccccc2)CC1 [ECU] the assay gave fitted potency 17.78 µM (inhibitor, single point). With O=c1[nH]c2ccccc2n1CCCN1CCN(C(c2ccccc2)c2ccccc2)CC1 [TAB109] the assay gave fitted potency 7.943 µM (inhibitor, partial curve).

Repeated from the top, 2 entries:

With COc1ccc2c(c1OC)CN1CCc3cc4c(cc3[C@H]1C2)OCO4 [CP201] the assay gave fitted potency 2.279 µM (inhibitor, partial curve).
With COc1ccc2c(c1OC)CN1CCc3cc4c(cc3[C@H]1C2)OCO4 [CP217] the assay gave fitted potency 3.162 µM (inhibitor, partial curve).